{"source": "PubChem BioAssay AID1259254 (NCATS, 2017)", "screen": "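Finding genes that stop cells copying their DNA twice in one cycle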 (primary screen)", "system": "human HCT116 colorectal cancer cells", "knock-down reagent": "single siRNA against human genes", "timing": "3 days", "read-out": "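Nuclei stained with Hoechst and imaged; cell-cycle phase assigned by DNA content; G2 share scaled per plate, non-targeting siRNA 0%, GMNN siRNA 100%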", "reading the numbers": "G2 robust z-score and G2 cells, % of GMNN control: higher = more G2 cells, more excess DNA replication", "hit rule": "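An siRNA counts as active if its G2 robust z-score lies at least 5 MADs above the screen median; here such calls match roughly 38% of GMNN control or more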", "note": "Here is one part, drawn at random, of about 59,000 deposited reagents. About 1,550 of all reagents (2.6%) were called active. 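G2 share is only a proxy for re-replication; each gene was hit by three separate siRNAs, and active genes were retested.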 Entries without a mark were called inactive. The numbers tell different reagents against one gene apart. Further read-outs or replicates are left out here. Not given: the amount of reagent."}
{"gene knocked down": "SND1 (staphylococcal nuclease and tudor domain containing 1)", "reagent no.": 1, "G2 robust z-score": 1.25, "G2 cells, % of GMNN control": 11.7}
{"gene knocked down": "SND1 (staphylococcal nuclease and tudor domain containing 1)", "reagent no.": 2, "G2 robust z-score": 0.13, "G2 cells, % of GMNN control": 3.88}
{"gene knocked down": "SND1 (staphylococcal nuclease and tudor domain containing 1)", "reagent no.": 3, "G2 robust z-score": -1.04, "G2 cells, % of GMNN control": -4.35}
{"gene knocked down": "GABRG3 (gamma-aminobutyric acid type A receptor subunit gamma3)", "reagent no.": 1, "G2 robust z-score": -0.801, "G2 cells, % of GMNN control": -2.67}
{"gene knocked down": "GABRG3 (gamma-aminobutyric acid type A receptor subunit gamma3)", "reagent no.": 2, "G2 robust z-score": -0.0154, "G2 cells, % of GMNN control": 2.86}
{"gene knocked down": "GABRG3 (gamma-aminobutyric acid type A receptor subunit gamma3)", "reagent no.": 3, "G2 robust z-score": 1.17, "G2 cells, % of GMNN control": 11.2}
{"gene knocked down": "PFDN1 (prefoldin subunit 1)", "reagent no.": 1, "G2 robust z-score": 1.41, "G2 cells, % of GMNN control": 12.9}
{"gene knocked down": "PFDN1 (prefoldin subunit 1)", "reagent no.": 2, "G2 robust z-score": -0.984, "G2 cells, % of GMNN control": -3.96}
{"gene knocked down": "PFDN1 (prefoldin subunit 1)", "reagent no.": 3, "G2 robust z-score": -0.0417, "G2 cells, % of GMNN control": 2.67}
{"gene knocked down": "PLPP6 (phospholipid phosphatase 6)", "reagent no.": 1, "G2 robust z-score": -0.66, "G2 cells, % of GMNN control": -1.68}
{"gene knocked down": "PLPP6 (phospholipid phosphatase 6)", "reagent no.": 2, "G2 robust z-score": -0.251, "G2 cells, % of GMNN control": 1.2}
{"gene knocked down": "PLPP6 (phospholipid phosphatase 6)", "reagent no.": 3, "G2 robust z-score": -0.319, "G2 cells, % of GMNN control": 0.723}
{"gene knocked down": "GABRR2 (gamma-aminobutyric acid type A receptor subunit rho2)", "reagent no.": 1, "G2 robust z-score": "5.19 (active)", "G2 cells, % of GMNN control": 39.5}
{"gene knocked down": "GABRR2 (gamma-aminobutyric acid type A receptor subunit rho2)", "reagent no.": 2, "G2 robust z-score": -0.71, "G2 cells, % of GMNN control": -2.03}
{"gene knocked down": "GABRR2 (gamma-aminobutyric acid type A receptor subunit rho2)", "reagent no.": 3, "G2 robust z-score": -0.579, "G2 cells, % of GMNN control": -1.1}
{"gene knocked down": "FAM193A (family with sequence similarity 193 member A)", "reagent no.": 1, "G2 robust z-score": -0.256, "G2 cells, % of GMNN control": 1.17}
{"gene knocked down": "FAM193A (family with sequence similarity 193 member A)", "reagent no.": 2, "G2 robust z-score": 1.02, "G2 cells, % of GMNN control": 10.1}
{"gene knocked down": "FAM193A (family with sequence similarity 193 member A)", "reagent no.": 3, "G2 robust z-score": 0.627, "G2 cells, % of GMNN control": 7.38}
{"gene knocked down": "LINC02043 (long independently transcribed non-coding RNA 2043)", "reagent no.": 1, "G2 robust z-score": 0.121, "G2 cells, % of GMNN control": 3.82}
{"gene knocked down": "LINC02043 (long independently transcribed non-coding RNA 2043)", "reagent no.": 2, "G2 robust z-score": -0.153, "G2 cells, % of GMNN control": 1.89}
{"gene knocked down": "LINC02043 (long independently transcribed non-coding RNA 2043)", "reagent no.": 3, "G2 robust z-score": 1.88, "G2 cells, % of GMNN control": 16.2}
{"gene knocked down": "FBXO46 (F-box protein 46)", "reagent no.": 1, "G2 robust z-score": 3.83, "G2 cells, % of GMNN control": 29.9}
{"gene knocked down": "FBXO46 (F-box protein 46)", "reagent no.": 2, "G2 robust z-score": 0.198, "G2 cells, % of GMNN control": 4.36}
{"gene knocked down": "FBXO46 (F-box protein 46)", "reagent no.": 3, "G2 robust z-score": -0.184, "G2 cells, % of GMNN control": 1.67}
{"gene knocked down": "AHR (aryl hydrocarbon receptor)", "reagent no.": 1, "G2 robust z-score": 2.78, "G2 cells, % of GMNN control": 22.6}
{"gene knocked down": "AHR (aryl hydrocarbon receptor)", "reagent no.": 2, "G2 robust z-score": -1.15, "G2 cells, % of GMNN control": -5.12}
{"gene knocked down": "AHR (aryl hydrocarbon receptor)", "reagent no.": 3, "G2 robust z-score": 0.915, "G2 cells, % of GMNN control": 9.41}
{"gene knocked down": "PRAMEF10 (PRAME family member 10)", "reagent no.": 1, "G2 robust z-score": -0.112, "G2 cells, % of GMNN control": 2.18}
{"gene knocked down": "PRAMEF10 (PRAME family member 10)", "reagent no.": 2, "G2 robust z-score": "6.25 (active)", "G2 cells, % of GMNN control": 46.9}
{"gene knocked down": "PRAMEF10 (PRAME family member 10)", "reagent no.": 3, "G2 robust z-score": -0.565, "G2 cells, % of GMNN control": -1.01}

Just “G2 cells, % of GMNN control” (2 entries from above):
GABRR2 (gamma-aminobutyric acid type A receptor subunit rho2) #2 = -2.03
GABRR2 (gamma-aminobutyric acid type A receptor subunit rho2) #3 = -1.1
